# In the supplement of paper PMC11438910:
# This is one part of the list. Most of these values are background signal.
# Legend:
# Assay in all cases: fluorescence intensity of antibody binding to polysaccharide-coupled beads; higher = stronger binding
# [1] = target: pneumococcal polysaccharide Pn25A
# Procedure: (§1)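 Recombinant rhesus-murine chimeric IgG1 antibodies were tested against antigen-coupled MagPlex beads in a 96-plex Luminex direct immunoassay (dLIA). The beads carried pneumococcal capsular polysaccharides of 93 serotypes plus C-polysaccharides. Antibody was added at 0.1–12,500 ng/mL for 1 h, then PE anti-mouse IgG, and net MFI was read on a Bio-Plex 3D. Only the rhesus variable regions are printed; constant regions are murine IgG1/kappa/lambda, and the signal peptide is MGWSCIILFLVATATGVHS.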
# [2] = target: pneumococcal polysaccharide Pn25F
# Procedure: as §1
# [3] = target: pneumococcal polysaccharide Pn27
# Procedure: as §1
# [4] = target: pneumococcal polysaccharide Pn28A
# Procedure: as §1
# [5] = target: pneumococcal polysaccharide Pn28F
# Procedure: as §1
# [6] = target: pneumococcal polysaccharide Pn29
# Procedure: as §1
# [7] = target: pneumococcal polysaccharide Pn3
# Procedure: as §1
# [8] = target: pneumococcal polysaccharide Pn31
# Procedure: as §1
# [9] = target: pneumococcal polysaccharide Pn32A
# Procedure: as §1
# [10] = target: pneumococcal polysaccharide Pn32F
# Procedure: as §1
# [11] = target: pneumococcal polysaccharide Pn33A
# Procedure: as §1
# [12] = target: pneumococcal polysaccharide Pn33B
# Procedure: as §1
# [13] = target: pneumococcal polysaccharide Pn33C
# Procedure: as §1
# [14] = target: pneumococcal polysaccharide Pn33D
# Procedure: as §1
# [15] = target: pneumococcal polysaccharide Pn33F
# Procedure: as §1
# [16] = target: pneumococcal polysaccharide Pn34
# Procedure: as §1
# [17] = target: pneumococcal polysaccharide Pn35A
# Procedure: as §1
# [18] = target: pneumococcal polysaccharide Pn35B
# Procedure: as §1
# [19] = target: pneumococcal polysaccharide Pn35C
# Procedure: as §1
# [20] = target: pneumococcal polysaccharide Pn35F
# Procedure: as §1
# [21] = target: pneumococcal polysaccharide Pn36
# Procedure: as §1
# [22] = target: pneumococcal polysaccharide Pn37
# Procedure: as §1
# [23] = target: pneumococcal polysaccharide Pn38
# Procedure: as §1
# [24] = antibody concentration 0.1 ng/mL
# [25] = antibody concentration 0.534724 ng/mL
# [26] = antibody concentration 2.8593 ng/mL
# [27] = antibody concentration 15.2894 ng/mL
# [28] = antibody concentration 81.7561 ng/mL
# [29] = antibody concentration 437.17 ng/mL
# [30] = antibody concentration 2337.65 ng/mL
# [31] = antibody concentration 12500 ng/mL
binder,measurement,setting,value
4-173.1 (protein) chain 1: QLQLQESGPGLVKPSETLSLTCAVSGASISSNYWSWIRQAPGKGLEWIGRISGSSGSTDYNPSLKSRVTISTDTSKNQFSLKLNSVTAADTAVYYCARVSYWGHYGDYWGQGVLVTVSS chain 2: QPVLTQPSSHSASPGAPARLTCTLSSGFSVGDFWIRWYQQKPGSPPRYLLYYHSDSDKHQGSGVPSRFSGSNDASANAGILHISGLQPEDEADYYCCTWHGNSKTQIFGAGTRLTVL,fluorescence intensity,[1]; [24],25.5 MFI
same,fluorescence intensity,[1]; [25],25 MFI
same,fluorescence intensity,[1]; [26],23.5 MFI
same,fluorescence intensity,[1]; [27],24 MFI
same,fluorescence intensity,[1]; [28],25.5 MFI
same,fluorescence intensity,[1]; [29],25.5 MFI
same,fluorescence intensity,[1]; [30],27 MFI
same,fluorescence intensity,[1]; [31],31.5 MFI
same,fluorescence intensity,[2]; [24],31.5 MFI
same,fluorescence intensity,[2]; [25],31 MFI
same,fluorescence intensity,[2]; [26],32 MFI
same,fluorescence intensity,[2]; [27],31.5 MFI
same,fluorescence intensity,[2]; [28],33 MFI
same,fluorescence intensity,[2]; [29],32.5 MFI
same,fluorescence intensity,[2]; [30],31.5 MFI
same,fluorescence intensity,[2]; [31],38.8 MFI
same,fluorescence intensity,[3]; [24],16.5 MFI
same,fluorescence intensity,[3]; [25],17 MFI
same,fluorescence intensity,[3]; [26],18 MFI
same,fluorescence intensity,[3]; [27],18.5 MFI
same,fluorescence intensity,[3]; [28],18.2 MFI
same,fluorescence intensity,[3]; [29],18 MFI
same,fluorescence intensity,[3]; [30],23 MFI
same,fluorescence intensity,[3]; [31],48.5 MFI
same,fluorescence intensity,[4]; [24],26 MFI
same,fluorescence intensity,[4]; [25],27 MFI
same,fluorescence intensity,[4]; [26],28.5 MFI
same,fluorescence intensity,[4]; [27],28 MFI
same,fluorescence intensity,[4]; [28],27 MFI
same,fluorescence intensity,[4]; [29],29.2 MFI
same,fluorescence intensity,[4]; [30],28 MFI
same,fluorescence intensity,[4]; [31],33 MFI
same,fluorescence intensity,[5]; [24],30 MFI
same,fluorescence intensity,[5]; [25],29.5 MFI
same,fluorescence intensity,[5]; [26],32.5 MFI
same,fluorescence intensity,[5]; [27],30.5 MFI
same,fluorescence intensity,[5]; [28],31.5 MFI
same,fluorescence intensity,[5]; [29],30.5 MFI
same,fluorescence intensity,[5]; [30],32.5 MFI
same,fluorescence intensity,[5]; [31],39.5 MFI
same,fluorescence intensity,[6]; [24],17.5 MFI
same,fluorescence intensity,[6]; [25],16 MFI
same,fluorescence intensity,[6]; [26],17.2 MFI
same,fluorescence intensity,[6]; [27],17.5 MFI
same,fluorescence intensity,[6]; [28],18.5 MFI
same,fluorescence intensity,[6]; [29],18.5 MFI
same,fluorescence intensity,[6]; [30],21.5 MFI
same,fluorescence intensity,[6]; [31],32 MFI
same,fluorescence intensity,[7]; [24],15.5 MFI
same,fluorescence intensity,[7]; [25],18.5 MFI
same,fluorescence intensity,[7]; [26],31 MFI
same,fluorescence intensity,[7]; [27],94.2 MFI
same,fluorescence intensity,[7]; [28],438 MFI
same,fluorescence intensity,[7]; [29],1960 MFI
same,fluorescence intensity,[7]; [30],7620 MFI
same,fluorescence intensity,[7]; [31],8590 MFI
same,fluorescence intensity,[8]; [24],13.8 MFI
same,fluorescence intensity,[8]; [25],14 MFI
same,fluorescence intensity,[8]; [26],15 MFI
same,fluorescence intensity,[8]; [27],15 MFI
same,fluorescence intensity,[8]; [28],15.5 MFI
same,fluorescence intensity,[8]; [29],14.8 MFI
same,fluorescence intensity,[8]; [30],16.5 MFI
same,fluorescence intensity,[8]; [31],32.5 MFI
same,fluorescence intensity,[9]; [24],17 MFI
same,fluorescence intensity,[9]; [25],17 MFI
same,fluorescence intensity,[9]; [26],19.5 MFI
same,fluorescence intensity,[9]; [27],19 MFI
same,fluorescence intensity,[9]; [28],19.5 MFI
same,fluorescence intensity,[9]; [29],19 MFI
same,fluorescence intensity,[9]; [30],20.8 MFI
same,fluorescence intensity,[9]; [31],28.5 MFI
same,fluorescence intensity,[10]; [24],28.5 MFI
same,fluorescence intensity,[10]; [25],27.8 MFI
same,fluorescence intensity,[10]; [26],28 MFI
same,fluorescence intensity,[10]; [27],26.5 MFI
same,fluorescence intensity,[10]; [28],28 MFI
same,fluorescence intensity,[10]; [29],29 MFI
same,fluorescence intensity,[10]; [30],33 MFI
same,fluorescence intensity,[10]; [31],44.5 MFI
same,fluorescence intensity,[11]; [24],19.5 MFI
same,fluorescence intensity,[11]; [25],19 MFI
same,fluorescence intensity,[11]; [26],18 MFI
same,fluorescence intensity,[11]; [27],19 MFI
same,fluorescence intensity,[11]; [28],20.5 MFI
same,fluorescence intensity,[11]; [29],21.2 MFI
same,fluorescence intensity,[11]; [30],27 MFI
same,fluorescence intensity,[11]; [31],97.2 MFI
same,fluorescence intensity,[12]; [24],19 MFI
same,fluorescence intensity,[12]; [25],19 MFI
same,fluorescence intensity,[12]; [26],18.5 MFI
same,fluorescence intensity,[12]; [27],18 MFI
same,fluorescence intensity,[12]; [28],18.8 MFI
same,fluorescence intensity,[12]; [29],19 MFI
same,fluorescence intensity,[12]; [30],18.8 MFI
same,fluorescence intensity,[12]; [31],20.5 MFI
same,fluorescence intensity,[13]; [24],19 MFI
same,fluorescence intensity,[13]; [25],19.5 MFI
same,fluorescence intensity,[13]; [26],17.8 MFI
same,fluorescence intensity,[13]; [27],20.2 MFI
same,fluorescence intensity,[13]; [28],20.5 MFI
same,fluorescence intensity,[13]; [29],19.5 MFI
same,fluorescence intensity,[13]; [30],21 MFI
same,fluorescence intensity,[13]; [31],29.5 MFI
same,fluorescence intensity,[14]; [24],16 MFI
same,fluorescence intensity,[14]; [25],16 MFI
same,fluorescence intensity,[14]; [26],17 MFI
same,fluorescence intensity,[14]; [27],16 MFI
same,fluorescence intensity,[14]; [28],15.8 MFI
same,fluorescence intensity,[14]; [29],16.5 MFI
same,fluorescence intensity,[14]; [30],18.5 MFI
same,fluorescence intensity,[14]; [31],19.2 MFI
same,fluorescence intensity,[15]; [24],14.2 MFI
same,fluorescence intensity,[15]; [25],13.5 MFI
same,fluorescence intensity,[15]; [26],14 MFI
same,fluorescence intensity,[15]; [27],14 MFI
same,fluorescence intensity,[15]; [28],14.8 MFI
same,fluorescence intensity,[15]; [29],13.8 MFI
same,fluorescence intensity,[15]; [30],17.5 MFI
same,fluorescence intensity,[15]; [31],43.5 MFI
same,fluorescence intensity,[16]; [24],15 MFI
same,fluorescence intensity,[16]; [25],16 MFI
same,fluorescence intensity,[16]; [26],14.5 MFI
same,fluorescence intensity,[16]; [27],13.5 MFI
same,fluorescence intensity,[16]; [28],14.5 MFI
same,fluorescence intensity,[16]; [29],14.5 MFI
same,fluorescence intensity,[16]; [30],14.8 MFI
same,fluorescence intensity,[16]; [31],16.5 MFI
same,fluorescence intensity,[17]; [24],17.5 MFI
same,fluorescence intensity,[17]; [25],18 MFI
same,fluorescence intensity,[17]; [26],19 MFI
same,fluorescence intensity,[17]; [27],17.5 MFI
same,fluorescence intensity,[17]; [28],16.5 MFI
same,fluorescence intensity,[17]; [29],19 MFI
same,fluorescence intensity,[17]; [30],20.5 MFI
same,fluorescence intensity,[17]; [31],33.5 MFI
same,fluorescence intensity,[18]; [24],19.5 MFI
same,fluorescence intensity,[18]; [25],20.5 MFI
same,fluorescence intensity,[18]; [26],20.5 MFI
same,fluorescence intensity,[18]; [27],19 MFI
same,fluorescence intensity,[18]; [28],18.5 MFI
same,fluorescence intensity,[18]; [29],18 MFI
same,fluorescence intensity,[18]; [30],19.5 MFI
same,fluorescence intensity,[18]; [31],28 MFI
same,fluorescence intensity,[19]; [24],20 MFI
same,fluorescence intensity,[19]; [25],20 MFI
same,fluorescence intensity,[19]; [26],20.8 MFI
same,fluorescence intensity,[19]; [27],21 MFI
same,fluorescence intensity,[19]; [28],20.5 MFI
same,fluorescence intensity,[19]; [29],20.5 MFI
same,fluorescence intensity,[19]; [30],21 MFI
same,fluorescence intensity,[19]; [31],22.5 MFI
same,fluorescence intensity,[20]; [24],19.2 MFI
same,fluorescence intensity,[20]; [25],20 MFI
same,fluorescence intensity,[20]; [26],19.2 MFI
same,fluorescence intensity,[20]; [27],20.8 MFI
same,fluorescence intensity,[20]; [28],21 MFI
same,fluorescence intensity,[20]; [29],23.8 MFI
same,fluorescence intensity,[20]; [30],22.5 MFI
same,fluorescence intensity,[20]; [31],25.8 MFI
same,fluorescence intensity,[21]; [24],16 MFI
same,fluorescence intensity,[21]; [25],15.5 MFI
same,fluorescence intensity,[21]; [26],16.5 MFI
same,fluorescence intensity,[21]; [27],16 MFI
same,fluorescence intensity,[21]; [28],17 MFI
same,fluorescence intensity,[21]; [29],17 MFI
same,fluorescence intensity,[21]; [30],18.2 MFI
same,fluorescence intensity,[21]; [31],28 MFI
same,fluorescence intensity,[22]; [24],26.5 MFI
same,fluorescence intensity,[22]; [25],26.5 MFI
same,fluorescence intensity,[22]; [26],26.5 MFI
same,fluorescence intensity,[22]; [27],25.8 MFI
same,fluorescence intensity,[22]; [28],26.5 MFI
same,fluorescence intensity,[22]; [29],26.8 MFI
same,fluorescence intensity,[22]; [30],36 MFI
same,fluorescence intensity,[22]; [31],98.5 MFI
same,fluorescence intensity,[23]; [24],28 MFI
same,fluorescence intensity,[23]; [25],26 MFI
same,fluorescence intensity,[23]; [26],26.8 MFI
same,fluorescence intensity,[23]; [27],27.2 MFI

# A section taken from the entries so far:
binder,measurement,setting,value
4-173.1 (protein) chain 1: QLQLQESGPGLVKPSETLSLTCAVSGASISSNYWSWIRQAPGKGLEWIGRISGSSGSTDYNPSLKSRVTISTDTSKNQFSLKLNSVTAADTAVYYCARVSYWGHYGDYWGQGVLVTVSS chain 2: QPVLTQPSSHSASPGAPARLTCTLSSGFSVGDFWIRWYQQKPGSPPRYLLYYHSDSDKHQGSGVPSRFSGSNDASANAGILHISGLQPEDEADYYCCTWHGNSKTQIFGAGTRLTVL,fluorescence intensity,[10]; [28],28 MFI
same,fluorescence intensity,[10]; [29],29 MFI
same,fluorescence intensity,[10]; [30],33 MFI
same,fluorescence intensity,[10]; [31],44.5 MFI
same,fluorescence intensity,[11]; [24],19.5 MFI
same,fluorescence intensity,[11]; [25],19 MFI

# Four entries drawn at random from those above:
binder,measurement,setting,value
4-173.1 (protein) chain 1: QLQLQESGPGLVKPSETLSLTCAVSGASISSNYWSWIRQAPGKGLEWIGRISGSSGSTDYNPSLKSRVTISTDTSKNQFSLKLNSVTAADTAVYYCARVSYWGHYGDYWGQGVLVTVSS chain 2: QPVLTQPSSHSASPGAPARLTCTLSSGFSVGDFWIRWYQQKPGSPPRYLLYYHSDSDKHQGSGVPSRFSGSNDASANAGILHISGLQPEDEADYYCCTWHGNSKTQIFGAGTRLTVL,fluorescence intensity,[20]; [30],22.5 MFI
same,fluorescence intensity,[5]; [25],29.5 MFI
same,fluorescence intensity,[4]; [29],29.2 MFI
same,fluorescence intensity,[21]; [26],16.5 MFI
